Experimental data from the supplement of paper PMC3334620.
Whole data set: some 33,000 sequences, median “E-score (-0.5 to 0.5)” near -8e-05, cut for the highest 2% near 0.23. The list shows a part of the results.

Molecular target: T1, Nrg2 (UniProt P38082)
T1 sequence: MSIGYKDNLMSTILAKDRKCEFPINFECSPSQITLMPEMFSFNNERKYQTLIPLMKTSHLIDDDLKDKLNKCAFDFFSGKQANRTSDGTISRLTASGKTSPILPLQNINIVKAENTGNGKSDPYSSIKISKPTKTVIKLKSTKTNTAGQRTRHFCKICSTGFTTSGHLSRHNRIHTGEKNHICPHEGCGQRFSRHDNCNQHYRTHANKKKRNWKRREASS
Experiment: PBM E-score (8-mer binding enrichment) (E-score (-0.5 to 0.5)); higher = stronger / more preferred TF binding
Settings: protein concentration: 100 nM; construct: GST-full length
Outline: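 PURExpress in vitro transcription/translation supplied GST-tagged yeast transcription factors, either full-length or DNA-binding domain. Applied at about 100-200 nM to universal all-10-mer Agilent arrays double-stranded by primer extension, the bound protein was detected with fluorescent anti-GST. E-scores, modified Wilcoxon-Mann-Whitney statistics, were given by the Universal PBM Analysis Suite to ungapped eight-base words pooled with their reverse complements after masliner normalisation.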

| Sequence | PBM E-score |
| --- | --- |
| CACCGAAA | 0.0473 |
| ATCCCCAG | -0.0474 |
| ACGCCTCC | -0.286 |
| AGAACCGG | -0.0944 |
| AAATCCTA | -0.0422 |
| ACTGAAGA | 0.143 |
| AGCCGTTG | -0.0331 |
| AGGGGGAG | -0.247 |
| CCCGGCGC | -0.109 |
| CCGTTGCC | -0.0649 |
| ATCTGAAT | 0.115 |
| ACAGGGAG | -0.147 |
| GGCTGTCA | -0.0381 |
| AGTGCAGG | -0.0252 |
| CCGAACTC | -0.0652 |
| AGATACCA | 0.197 |
| CCATGTAA | 0.0797 |
| AGCGGAAA | -0.00794 |
| ACTCTCAT | 0.0714 |
| ATACCTTA | 0.0349 |
| TAAGGCAA | 0.0499 |
| AGTGTTAG | 0.167 |
| TCAGGCCA | -0.064 |
| CCACGGCA | -0.05 |
| AGTCATTG | 0.0148 |

| Sequence | PBM E-score |
| --- | --- |
| CTCCAGGC | -0.0994 |
| CTTGCGGC | 0.00859 |
| GGCAGCAA | 0.106 |
| AATCCCGG | 0.0194 |
| GCGAACGA | 0.15 |
| CTTCTGCA | 0.00773 |
| GGCCGGCC | 0.0877 |
| ATGCGACA | 0.0603 |
| ACACCCTC | -0.116 |
| ACAATTTA | 0.157 |
| AACGCACG | 0.189 |
| TCACACAA | 0.137 |
| GAATCTGA | -0.0632 |
| AGCTTGCA | -0.016 |
| AGTCTTAC | -0.162 |
| ACGTCCGA | -0.06 |
| CACGAGCC | -0.205 |
| AAGTTTGA | 0.0835 |
| AATCGTGT | 0.164 |
| AAGATGTC | -0.12 |
| AAGCACAT | 0.135 |
| CTTTCCAA | -0.0143 |
| AGACGTCA | -0.0442 |
| AACTCGGA | 0.13 |
| CATGGTGG | -0.144 |

| Sequence | PBM E-score |
| --- | --- |
| GCAGACCC | -0.0364 |
| CGTATTCC | -0.11 |
| AATCTTAC | 0.0925 |
| AGTCCATA | 0.0684 |
| CGGCAGCC | -0.103 |
| ACTCGGCT | 0.00912 |
| GATCCGAC | -0.0481 |
| ATAAACAA | 0.193 |
| AGTTTGTG | -0.0679 |
| CTCATGAA | 0.112 |
| AGGGATAT | 0.153 |
| CTCCTTCA | -0.299 |
| CAGGGGCA | 0.086 |
| CCCATGGC | -0.123 |
| GTCAAACA | -0.117 |
| AATTTGCA | 0.119 |
| GCGTAACA | 0.0647 |
| CATGTGCC | 0.00954 |
| CCGTATCC | -0.18 |
| GTCCCGTA | -0.111 |
| ATCCACGG | 0.0972 |
| CACACTAC | 0.0365 |
| AATTTAAC | 0.0445 |
| GTAGCATA | 0.0751 |
| TTAAAAAA | 0.0402 |

Some of the entries so far, field by field:
CGTATTCC
  PBM E-score = -0.11
AATCTTAC
  PBM E-score = 0.0925
AGTTTGTG
  PBM E-score = -0.0679
CCGTATCC
  PBM E-score = -0.18

(list continues)

| Sequence | PBM E-score |
| --- | --- |
| CGAGCGAG | 0.249 |
| GTAAGGAA | -0.0395 |
| CCGCTGGA | -0.102 |
| CGTAATAC | 0.128 |
| ACCCCGTG | 0.178 |
| ATTATTCG | 0.295 |
| CTAATAAG | -0.0914 |
| ACCTGCAT | 0.00088 |
| AGGCAGTC | -0.0935 |
| GGTCCGCA | 0.126 |
| ATCCTCAT | -0.0645 |
| CCAACGTC | -0.093 |
| CCTTCTCC | -0.135 |
| AACGAAGC | -0.0149 |
| CGACACGA | 0.22 |
| CTCAATTA | 0.0644 |
| ACATATTC | 0.144 |
| CAGACGGA | -0.0654 |
| ACTAGCAT | -0.0422 |
| AAACCTGT | -0.0112 |
| AGGCGTAA | -0.0597 |
| AAGGCATG | -0.241 |
| CGCATACC | 0.152 |
| CAGGTGAG | -0.0713 |
| GGCAATGA | -0.0723 |

| Sequence | PBM E-score |
| --- | --- |
| GAGTCGCA | -0.221 |
| AAAGTTTC | 0.00759 |
| CTGACTTC | -0.0873 |
| GGCCCCAC | 0.00472 |
| CAAGTACA | 0.0376 |
| CACGCTGG | -0.0805 |
| CATCAGGG | 0.229 |
| AGCAACCG | -0.106 |
| CCGATCCA | -0.0217 |
| AATCGGCC | -0.0612 |
| ACCCTCCA | -0.0737 |
| GGTGATTA | 0.146 |
| AACGGGCT | -0.149 |
| ATCAGACA | 0.0653 |
| AACTTGCG | 0.0217 |
| CTAGTTAC | 0.058 |
| GTACATTA | 0.00944 |
| AAGGATTA | -0.0123 |
| AGGTTGAC | -0.124 |
| CCAAGTGC | -0.0768 |
| GACCCGGA | -0.13 |
| CATACCCG | -0.0139 |
| GACATGGC | 0.0189 |
| ACACGCCC | -0.0738 |
| GGAATCAA | 0.0751 |

2 entries from above, tab-delimited:
Sequence	PBM E-score
CTGACTTC	-0.0873
GGCCCCAC	0.00472

(list continues)

| Sequence | PBM E-score |
| --- | --- |
| GAGTACAA | 0.152 |
| ATAGTGAA | 0.0592 |
| CCCGAGCA | -0.147 |
| CGGACAAC | 0.103 |
| CACATGAC | 0.0249 |
| AATAATGT | 0.175 |
| CGAACGGA | 0.0273 |
| ACAAACAT | 0.103 |
| AAAAGCTG | -0.0835 |
| GTAACGCA | 0.126 |
| CCAGAGTC | 0.00015 |
| CCAGCTAA | -0.0659 |
| ATGTCTTA | 0.0139 |
| ACACGGGT | -0.0233 |
| ATTCAGTA | 0.0578 |
| ACCTACAC | -0.0926 |
| GTGATGAA | 0.0611 |
| GACCGGCA | -0.109 |
| TCCCAAGA | -0.0484 |
| GTAATGCA | -0.0387 |
| GATATTAC | 0.111 |
| AGCGGTGC | -0.0279 |
| CGCGTTTC | -0.134 |
| CTAGGCTA | -0.202 |
| AGCGGCAC | -0.138 |

| Sequence | PBM E-score |
| --- | --- |
| AATCGTAT | -0.00262 |
| CATGCAGA | 0.0612 |
| AGGTGTAG | -0.234 |
| CGAGTAAA | 0.16 |
| GGGTAACC | -0.216 |
| AAATATTC | 0.127 |
| CCCTTGGC | 0.0878 |
| GTCTGGGA | -0.0117 |
| AAATAGAA | -0.0257 |
| GGCACTAC | -0.0245 |
| CGATTTAG | 0.192 |
| GTTCGTTA | 0.107 |
| GCGCTAAA | 0.0235 |
| AAGTCGGT | -0.137 |
| CGGTTGAG | 0.132 |
| GGTACTGA | -0.163 |
| ATGTGCGG | 0.138 |
| ACTATTCC | -0.0137 |
| GAGTCGCC | -0.265 |
| ACGCCAAC | -0.224 |
| ACCTTGCC | -0.149 |
| TGCTGGAA | -0.0427 |

Exported as tab-separated lines: entries from further up
Sequence	PBM E-score
GTCTGGGA	-0.0117
AAATAGAA	-0.0257
GGCACTAC	-0.0245
CGATTTAG	0.192
GTTCGTTA	0.107
GCGCTAAA	0.0235
